Values from PubChem BioAssay AID1259405 (NCATS, 2018)

- Aim: 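Knock-downs that lift recombinant protein yield in hamster ovary cells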 (primary screen)
- System: Chinese hamster CHO-K1 ovary cells with stable secreted eGFP expression
- Reagent: single siRNA against mouse genes, 0.8 pmol siRNA per well (2 µl of 400 nM stock)
- Time to read-out: 3 days
- Measured: 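Per-well intracellular GFP measured by laser scanning cytometry, plus viability from ATP luminescence, each relative to plate median of non-targeting control wells, in %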
- Reading the numbers: GFP, % of control: higher = more GFP per well, higher productivity; viability (ATP), % of control: higher = more viable cells (more ATP)
- Call rule: 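a knock-down is called active if GFP reaches 120% or more of non-targeting control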
The deposit covers about 50,000 reagents; this is a random part of them. About 4,000 of them (8%) were called active. 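Mouse siRNA library applied to hamster cells; one well for each siRNA.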 No sequences are given here.

target,PubChem SID,"GFP, % of control","viability (ATP), % of control",outcome
Ndufb2 (NADH:ubiquinone oxidoreductase subunit B2),SID363572896,55.9,70.8,inactive
Ndufb2 (NADH:ubiquinone oxidoreductase subunit B2),SID363577472,89.2,82.7,inactive
Ndufb2 (NADH:ubiquinone oxidoreductase subunit B2),SID363580992,57.1,56.9,inactive
Or2ad1 (olfactory receptor family 2 subfamily AD member 1),SID363554157,58.1,74.2,inactive
Or2ad1 (olfactory receptor family 2 subfamily AD member 1),SID363567604,59,65.3,inactive
Or2ad1 (olfactory receptor family 2 subfamily AD member 1),SID363584961,43.8,76,inactive
"Agap3 (ArfGAP with GTPase domain, ankyrin repeat and PH domain 3)",SID363570214,88.7,82.9,inactive
"Agap3 (ArfGAP with GTPase domain, ankyrin repeat and PH domain 3)",SID363576550,83.9,81,inactive
"Agap3 (ArfGAP with GTPase domain, ankyrin repeat and PH domain 3)",SID363579718,37.8,38.8,inactive
Zfr (zinc finger RNA binding protein),SID363540704,128,131,active
Zfr (zinc finger RNA binding protein),SID363543155,77.4,97.6,inactive
Zfr (zinc finger RNA binding protein),SID363552648,109,60.6,inactive
Oacyl (O-acyltransferase like),SID363552332,64.4,75.7,inactive
Oacyl (O-acyltransferase like),SID363585468,84.1,105,inactive
Oacyl (O-acyltransferase like),SID363585819,82.5,95.6,inactive
Sos1 (SOS Ras/Rac guanine nucleotide exchange factor 1),SID363570055,79.8,96.5,inactive
Sos1 (SOS Ras/Rac guanine nucleotide exchange factor 1),SID363576391,74.6,76.6,inactive
Sos1 (SOS Ras/Rac guanine nucleotide exchange factor 1),SID363579559,72.3,94.8,inactive
"Nlrp9a (NLR family, pyrin domain containing 9A)",SID363562081,82,86,inactive
"Nlrp9a (NLR family, pyrin domain containing 9A)",SID363567219,63,74.7,inactive
"Nlrp9a (NLR family, pyrin domain containing 9A)",SID363584576,70.6,47.9,inactive
Mrpl53 (mitochondrial ribosomal protein L53),SID363562198,72.3,49.6,inactive
Mrpl53 (mitochondrial ribosomal protein L53),SID363567336,61.7,56.6,inactive
Mrpl53 (mitochondrial ribosomal protein L53),SID363584693,69.6,78.8,inactive
"Cstf1 (cleavage stimulation factor, 3' pre-RNA, subunit 1)",SID363550015,45.8,68.4,inactive
"Cstf1 (cleavage stimulation factor, 3' pre-RNA, subunit 1)",SID363564524,153,28.5,active
"Cstf1 (cleavage stimulation factor, 3' pre-RNA, subunit 1)",SID363588069,129,98.6,active
Arhgap19 (Rho GTPase activating protein 19),SID363545306,33.1,57.7,inactive
Arhgap19 (Rho GTPase activating protein 19),SID363548819,79.3,91.7,inactive
Arhgap19 (Rho GTPase activating protein 19),SID363562625,49,51.6,inactive
Nub1 (negative regulator of ubiquitin-like proteins 1),SID363552142,51,62.7,inactive
Nub1 (negative regulator of ubiquitin-like proteins 1),SID363585278,83.4,90.8,inactive
Nub1 (negative regulator of ubiquitin-like proteins 1),SID363585629,88.8,98.8,inactive
Gnat2 (G protein subunit alpha transducin 2),SID363570113,107,105,inactive
Gnat2 (G protein subunit alpha transducin 2),SID363576449,207,112,active
Gnat2 (G protein subunit alpha transducin 2),SID363579617,85.2,77.8,inactive
Cnga2 (cyclic nucleotide gated channel alpha 2),SID363570269,137,117,active
Cnga2 (cyclic nucleotide gated channel alpha 2),SID363576605,121,105,active
Cnga2 (cyclic nucleotide gated channel alpha 2),SID363579773,52.5,58.8,inactive
Slc37a4,SID363574664,62.8,58.8,inactive
Slc37a4,SID363575720,63.1,67.4,inactive
Slc37a4,SID363580296,37.2,37.4,inactive
Rbl2 (RB transcriptional corepressor like 2),SID363573697,61.5,75.9,inactive
Rbl2 (RB transcriptional corepressor like 2),SID363581441,72.7,51.7,inactive
Rbl2 (RB transcriptional corepressor like 2),SID363583905,93.7,96.9,inactive
Eya3 (EYA transcriptional coactivator and phosphatase 3),SID363569707,93.8,66.6,inactive
Eya3 (EYA transcriptional coactivator and phosphatase 3),SID363576747,68.5,75.5,inactive
Eya3 (EYA transcriptional coactivator and phosphatase 3),SID363578155,105,85.6,inactive
Tceal9 (transcription elongation factor A like 9),SID363541134,57.5,76.1,inactive
Tceal9 (transcription elongation factor A like 9),SID363555761,64.7,63.2,inactive
Tceal9 (transcription elongation factor A like 9),SID363566050,81.4,63.7,inactive
Iqsec2 (IQ motif and Sec7 domain 2),SID363545775,82.4,61.6,inactive
Iqsec2 (IQ motif and Sec7 domain 2),SID363549288,71.8,80.2,inactive
Iqsec2 (IQ motif and Sec7 domain 2),SID363563094,49.3,53,inactive
Efcab8 (EF-hand calcium binding domain 8),SID363542856,42.9,28.2,inactive
Efcab8 (EF-hand calcium binding domain 8),SID363546373,81.1,101,inactive
Efcab8 (EF-hand calcium binding domain 8),SID363548129,103,118,inactive
"Akr1c21 (aldo-keto reductase family 1, member C21)",SID363547892,108,113,inactive
"Akr1c21 (aldo-keto reductase family 1, member C21)",SID363558661,95.4,110,inactive
"Akr1c21 (aldo-keto reductase family 1, member C21)",SID363560419,64.8,82.5,inactive
Cd300e (CD300E molecule),SID363575108,58.2,44.9,inactive
Cd300e (CD300E molecule),SID363580740,63,57.3,inactive
Cd300e (CD300E molecule),SID363582852,64.6,63.5,inactive
"Magix (MAGI family member, X-linked)",SID363554480,51.2,80.7,inactive
"Magix (MAGI family member, X-linked)",SID363567927,75.6,43.5,inactive
"Magix (MAGI family member, X-linked)",SID363585986,56.6,83.6,inactive
Slc25a33,SID363570275,152,133,active
Slc25a33,SID363576611,86.9,103,inactive
Slc25a33,SID363579779,75.2,88.4,inactive
Clmp (CXADR-like membrane protein),SID363544112,74.3,83.9,inactive
Clmp (CXADR-like membrane protein),SID363550440,51,68.3,inactive
Clmp (CXADR-like membrane protein),SID363556989,52.2,84,inactive
Or9k7 (olfactory receptor family 9 subfamily K member 7),SID363545030,68,37.9,inactive
Or9k7 (olfactory receptor family 9 subfamily K member 7),SID363551358,113,107,inactive
Or9k7 (olfactory receptor family 9 subfamily K member 7),SID363557907,21.8,33.1,inactive
"Fabp9 (fatty acid binding protein 9, testis)",SID363545455,46.2,51.8,inactive
"Fabp9 (fatty acid binding protein 9, testis)",SID363548968,78.6,65.1,inactive
"Fabp9 (fatty acid binding protein 9, testis)",SID363562774,185,61.4,active
"Eva1a (eva-1 homolog A, regulator of programmed cell death)",SID363547107,33.1,60.3,inactive
"Eva1a (eva-1 homolog A, regulator of programmed cell death)",SID363549919,67.2,98.5,inactive
"Eva1a (eva-1 homolog A, regulator of programmed cell death)",SID363587973,259,165,active
"Eva1a (eva-1 homolog A, regulator of programmed cell death)",SID363589639,223,91.1,active
"Eva1a (eva-1 homolog A, regulator of programmed cell death)",SID363589640,80.2,79.9,inactive
"Eva1a (eva-1 homolog A, regulator of programmed cell death)",SID363589658,78.4,102,inactive
